Laboratory results published in patent US20240108559A1, “TOPICAL COMPOSITIONS CONTAINING SYNTHETIC ESTERS OF SINAPINIC ACID AND METHODS FOR TREATING KERATIN SURFACES” (ELC MANAGEMENT LLC, priority 2017, published 2024).
For at least one compound, name, drawing or mass did not settle the structure.

What was measured:
[1] = tested on: Interleukin-1α (IL 1-α); experiment: Milliplex MAP Human Cytokine Assay, IL1-α in keratinocyte media; type: cell-based; conditions: media collected 6h after irradiation; irradiated and non-irradiated cells; FIG. 5
[2] = tested on: IL1-β; experiment: Milliplex MAP Human Cytokine Assay, IL1-β in keratinocyte media; type: cell-based; conditions: media collected 6h after irradiation; irradiated and non-irradiated cells; FIG. 5
[3] = tested on: normal human epidermal keratinocytes (NHEK); experiment: Alamar Blue cellular viability assay with and without UVB irradiation; type: cell-based; conditions: 0.0025 to 0.25%; not irradiated or irradiated with 20, 40, and 80 mJ/cm2 UVB; FIG. 3
[4] = tested on: Normal Human Epidermal Keratinocyte (NHEK); experiment: Anti-oxidant activity, DCFda fluorescence ROS assay; type: cell-based; conditions: 0.01%, 0.05%, and 0.10%; untreated cells and cells irradiated with 50 mJ/cm^2 UVB; FIG. 6
[5] = tested on: Keratinocytes (NHEK); experiment: DNA fragmentation study (Comet assay) after UVB; type: cell-based, human; conditions: 0.005% and 0.025%; no irradiation and UV irradiated (100 mJ/cm^2 UVB); FIG. 4

COc1cc(/C=C/C(=O)OC(CC(=O)O)C(=O)O)cc(OC)c1O (centres unmarked) [Sinapoyl malate]
inhibition of IL1-α [1]: inhibits both IL1-α and IL1-β in a dose dependent manner | inhibition of IL1-β [2]: inhibits both IL1-α and IL1-β in a dose dependent manner | keratinocyte health and viability [3]: effective in promoting keratinocyte health and viability both before and after UV radiation | anti-oxidant activity (reduction of ROS fluorescence) [4]: very effective anti-oxidant | inhibition of DNA damage (tail moments) [5]: very effective in inhibiting or preventing DNA damage
